From PMC6199744, “Development of Chemical Proteomics for the Folateome and Analysis of the Kinetoplastid Folateome” (ACS Infectious Diseases, 2018)
Where two headings read alike, the source gives them in different places. The source gives many values for each of these; only a part stands here.

System: T. brucei lysate proteins
Type: binding, Trypanosoma brucei

Compound: CCCCCCOc1ccc(Cc2cnc(N)nc2N)cc1 [compound 1]
- fold change (protein TB09.211.0560 RNA-BINDING PROTEIN, vehicle control = 1): 0.91
- fold change (protein TB09.211.4760 METACASPASE 5, PUTATIVE, vehicle control = 1): 0.84
- fold change (protein TB11.02.2040 HY[…], CONSERVED, vehicle control = 1): 0.89
- fold change (protein TB11.03.0530 HY[…], CONSERVED, vehicle control = 1): 1.1
- fold change - vehicle control (protein TB427TMP.01.0620 HY[…], CONSERVED): 0.8
- fold change (protein TB427TMP.01.2460 HY[…], CONSERVED, vehicle control = 1): 0.86
- fold change (protein TB427TMP.01.2840 HY[…], CONSERVED, vehicle control = 1): 1
- fold change (protein TB427TMP.01.3110 HEAT SHOCK PROTEIN 70, vehicle control = 1): 1.1
- fold change (protein TB427TMP.01.6180 HY[…], CONSERVED, vehicle control = 1): 0.95
- fold change (protein TB427TMP.01.7290 NUDIX HYDROLASE, CONSERVED, vehicle control = 1): 1.1
- fold change (protein TB427TMP.02.2890 HY[…], CONSERVED, vehicle control = 1): 0.98
- fold change (protein TB427TMP.02.4300 HY[…], CONSERVED, vehicle control = 1): 0.89
- fold change (protein TB427TMP.03.0030 ABC TRANSPORTER, PUTATIVE, vehicle control = 1): 1.3
- fold change (protein TB427TMP.160.4560 ARGININE KINASE, vehicle control = 1): 1.55
- fold change (protein TB427TMP.160.4620 INOSITOL-1(OR 4)-MONOPHOSPHATASE, PUTATIVE, vehicle control = 1): 0.95
- fold change (protein TB427TMP.211.2460 HY[…], CONSERVED, vehicle control = 1): 1.2
- fold change (protein TB427TMP.211.4550 60S RIBOSOMAL PROTEIN L12, PUTATIVE, vehicle control = 1): 1.38
- fold change (protein TB427TMP.211.4810 HY[…], CONSERVED, vehicle control = 1): 0.94
- fold change (protein TB427TMP.244.2570 CALCIUM MOTIVE P-TYPE ATPASE, PUTATIVE, vehicle control = 1): 0.88
- fold change (protein TB427TMP.57.0008 CALPAIN-LIKE PROTEIN, PUTATIVE, vehicle control = 1): 1.21
- fold change (protein TB427.02.5820 HY[…], CONSERVED, vehicle control = 1): 1.75
- fold change (protein TB427.02.5900 HY[…], CONSERVED, vehicle control = 1): 0.95
- fold change (protein TB427.03.3000 FLAGELLAR TRANSPORT PROTEIN, PUTATIVE, vehicle control = 1): 1
- fold change (protein TB427.03.4070 HY[…], CONSERVED, vehicle control = 1): 0.97
- fold change (protein TB427.04.2060 HY[…], CONSERVED, vehicle control = 1): 0.94
- fold change (protein TB427.04.2340 HY[…], CONSERVED, vehicle control = 1): 0.93
- fold change (protein TB427.04.3740 FLAGELLAR […] PROTEIN, vehicle control = 1): 1.46
- fold change - vehicle control (protein TB427.05.1490 HY[…], CONSERVED): 1.08
- fold change (protein TB427.05.1700 R[…] A 28 KDA SUBUNIT, PUTATIVE, vehicle control = 1): 1.21
- fold change (protein TB427.05.3260 HY[…], CONSERVED, vehicle control = 1): 1
- fold change (protein TB427.05.550 VACUOLAR ATP SYNTHASE, PUTATIVE, vehicle control = 1): 1.42
- fold change (protein TB427.06.4740 IMPORTIN-ALPHA RE-EXPORTER PROTEIN, PUTATIVE, vehicle control = 1): 0.93
- fold change (protein TB427.08.1420 ACYL-COA DEHYDROGENASE, MIT[…], PUTATIVE, vehicle control = 1): 0.88
- fold change (protein TB427.08.1950 HY[…], CONSERVED, vehicle control = 1): 0.94
- fold change (protein TB427.10.14180 PROTEIN TRANSPORT PROTEIN SEC13, PUTATIVE, vehicle control = 1): 0.94
- fold change (protein TB427.10.1450 HY[…], CONSERVED, vehicle control = 1): 1.4
- fold change (protein TB427.10.14860 HY[…], CONSERVED, vehicle control = 1): 0.89
- fold change (protein TB427.10.15360 HY[…], CONSERVED, vehicle control = 1): 0.91
- fold change (protein TB427.10.15910 GLYCEROL UPTAKE PROTEIN, PUTATIVE, vehicle control = 1): 0.94
- fold change (protein TB427.10.2020 HEXOKINASE, vehicle control = 1): 1.5
- fold change (protein TB427.10.3210 DELTA-1-PYRROLINE-5-CARBOXYLATE DEHYDROGENASE, PUTATIVE, vehicle control = 1): 0.99
- fold change (protein TB427.10.4600 HY[…], CONSERVED, vehicle control = 1): 0.46
- fold change (protein TB427.10.5520 HY[…], CONSERVED, vehicle control = 1): 0.78
- fold change - vehicle control (protein TB427.10.5840 T[…] 1-BETA, PUTATIVE): 0.89
- fold change (protein TB427.10.5850 HY[…], CONSERVED, vehicle control = 1): 1.2
- fold change (protein TB427.10.7620 MIT[…]-DEPENDENT ZINC METALLOPEPTIDASE, PUTATIVE, vehicle control = 1): 1.4
- fold change (protein TB427.10.9890 HY[…], CONSERVED, vehicle control = 1): 1.1
- fold change (protein TB927.10.13290 ETHANOLAMINE PHOSPHOTRANSFERASE (EPT), vehicle control = 1): 0.94
- fold change (protein TB927.10.14170 AQUAPORIN 9, PUTATIVE, vehicle control = 1): 0.96
- fold change (protein TB927.10.4310 PROHIBITIN 2, PUTATIVE, vehicle control = 1): 0.96
- fold change (protein TB927.10.6050 CLATHRIN HEAVY CHAIN, vehicle control = 1): 0.94
- fold change (protein TB927.10.9740 […] SUBUNIT 6, vehicle control = 1): 1.34
- fold change (protein TB927.2.1780 UDP-GLCNAC:PI A1-6 GLCNAC-TRANSFERASE, vehicle control = 1): 0.92
- fold change (protein TB927.2.5160 CHAPERONE PROTEIN DNAJ, PUTATIVE, vehicle control = 1): 1.52
- fold change (protein TB927.6.2360 ADENOSINE KINASE, PUTATIVE, vehicle control = 1): 0.91
- fold change (protein TB927.7.7040 METHYLTHIOADENOSINE PHOSPHORYLASE, PUTATIVE, vehicle control = 1): 0.55
- fold change (vs vehicle control, protein ADENOSINE TRANSPORTER 1 (CZT00028614.1)): 1.1
- fold change (vs vehicle control, protein HA-UBIQUITIN (CZB00000046.1)): 0.78
- fold change (vs vehicle control, protein TB09.160.2360 POLY(A) EXPORT PROTEIN, PUTATIVE): 0.93
- fold change (vs vehicle control, protein TB09.211.0630 ACTIN A): 0.93
